Source: US20080234232A1, “Methods and compositions for targeting AFAP” (priority 2007, published 2008)
At least one compound was matched to its structure with a doubt left.

Experiments:
PI3K = assay: Immunofluorescence of Ptdlns-3,4,5-P3 production in SYF/cSrc cells; assay type: cell-based, mouse
Experimental: SYF/cSrc cells were serum-starved for 24 hours. Cells stimulated with 10% serum (panels c-f), 100 nM PMA for 5 (panels g-h), or 15 minutes (panels i-j); as well as treated with 100 nM PMA in combination with 6 μM bisindolylmaleimide [I] (panels k-I) or 50 nM wortmannin (panels m-n). Cells treated with 100 nM PMA in combination with 5 μM PP1 (panel o-p) and Ptdlns-3,4,5-P3 levels evaluated. Cells were immunolabeled with a PI-3,4,5-P3-specific antibody (Echelon, Inc.;1:100) and TRITC-phalloidin (1:500). Secondary antibody for anti-PI-3,4,5-P3 (1:100) was Alexa IgM 647 anti-mouse (1:200). Bars represent 20 μm.
(§1) SYF, SYF/cSrc, p85α+/+ and p85−/− cells were cultured in standard culture media. Transient transfections of SYF, SYF/cSrc, p85α+/+ cells for immunofluorescence were carried out using LipofectAMINE™ Reagent (Invitrogen) as per manufacturer's protocol. Briefly, Approximately 5.0-8.0×10^4 cells per well were transfected at 50-70% confluent on coverstips with 2-4 μg of plasmid DNA and incubated for 3-4 hours. […]
Ptdlns-3,4,5-P3 production was measured using the anti-Ptdlns-3,4,5-P3 antibody (Echelon, inc.) for analysis by immunofluorescence and contrasted with stress filament integrity, measured using TRITC-phalloidin as previously described (Chen, R. et. al., 2002; Hama, H. et. al., 2004). […]

[1] = system: AFAP-110 colocalization with cSrc and cSrc activation; assay: Immunofluorescence: PMA-induced colocalization of AFAP-110 with cSrc and cSrc activation in mouse embryo fibroblasts; assay type: cell-based; settings: 100 nM PMA 15 min; for PMA-induced cSrc activation (phospho-Src-family Tyr416) / PMA-induced colocalization of AFAP-110 with cSrc: SYF cells co-expressing GFP-AFAP-110 and cSrc, pretreatment 6 μM bisindolylmaleimide, 10 μM LY294002 or 50 nM Wortmannin
Experimental: FIG. 1: LY294002 blocks PMA-induced colocalization between AFAP-110 and cSrc, and subsequent cSrc activation. A) SYF cells transiently co-expressing GFP-AFAP-110 and cSrc were untreated (panels a-d), treated with 100 nM PMA for 15 minutes (panels e-h), or treated with PMA and either 6 μM bisindolylmaleimide (panels i-I), 10 μM LY294002 (panels m-p) or 50 nM Wortmannin (panels q-t). Fixed cells were immunolabeled with avian specific cSrc antibody, EC10 (1:500), and phospho-Src-family (Tyr416) (1:250) as described in the methods section. Secondary antibodies used were Atexa 546 anti-mouse for EC10 and Alexa 647 anti-rabbit for phospho-Src-family (Tyr416). A merged image was generated to determine colocalization between AFAP-110 and cSrc. Bars represent 20 μM.
D) Knockout MEFs (p85−/−) were transfected with GFP-AFAP-110 and cSrc. Fixed cells were immunolabeled with EC10 (1:500) and phospho-Src-family (Tyr416) (1:250) as described in the methods section. Secondary antibodies used were Alexa 546 anti-mouse for EC10 and Alexa 647 anti-rabbit for phospho-Src-family (Tyr416). Cells treated with 100 riM PMA for 15 minutes (panels e-h). Images were merged to determine colocalization of cSrc and GFP-AFAP-110. Bars represent 20 μm. Mouse embryo fibroblast cells that express the p85α isoform of the PI3K regulatory subunit (p85α+/+) were transfected with GFP-AFAP-110 and cSrc. Fixed cells were immunolabeled with EC10 (1:500) and phospho-Src-family (Tyr416) (1:250) as described in the methods section. Secondary antibodies used were Alexa 546 anti-mouse for EC10 and Alexa 647 anti-rabbit for phospho-Src-family (Tyr416). Images were merged to determine colocalization of cSrc and GFP-AFAP-110. Bars represent 20 μm.
SYF, SYF/cSrc, p85α+/+ and p85−/− cells were cultured in standard culture media. Transient transfections of SYF, SYF/cSrc, p85α+/+ cells for immunofluorescence were carried out using LipofectAMINE™ Reagent (Invitrogen) as per manufacturer's protocol. Briefly, Approximately 5.0-8.0×10^4 cells per well were transfected at 50-70% confluent on coverstips with 2-4 μg of plasmid DNA and incubated for 3-4 hours. Thirty-six hours after transfection, cells were serum starved for 12 hours, treated, and subsequently fixed and permeablized as previously described (Qian, Y. et. al., 1998). Cells were treated with a PKC activator, 100 nM PMA for 5 or 15 minutes or in combination with the following pretreatments; a PKC inhibitor, 6 μM bisindolylmaleimide [I] for six hours; or PI3K inhibitor, 10 μM LY294002 for six hours; 50 nM Wortmannin for 30 minutes; and/or a Src family inhibitor, 5 μM PP1 for six hours. For actin labeling, a 1:500 dilution of TRITC-phalloidin was used as labeled in the figures. Primary antibody concentrations used were diluted in 5% Bovine Serum Albumin (BSA) dissolved in 1× phosphate-buffered saline (PBS): EC10 mAb-1:500; Phospho-Src Family (Y416) pAb-1:250; Anti-PI-3,4,5-P3 mAb-1:100; Anti-AFAP-110 (F1)pAb-1:1000; Anti-cSrc pAb-1:500; Anti-flag-1:1000. All fluorescent secondary and phalloidin antibodies were diluted 1:200 in 5% BSA, and are labeled according to figure legends. Cells were washed and mounted on slides with Fluoromount-G (Fisher). A Zeiss LSM 510 confocal microscope was used to scan images of about 1 μM in thickness. To prevent cross-contamination between the different fluorochromes, each channel was imaged sequentially using the multitrack recording module before merging the images. […]

cSrc [2] = assay: Immunofluorescence: translocation of cSrc from the perinuclear region to the cell periphery; assay type: cell-based, mouse; settings: SYF cells, 100 nM PMA with 6 μM bisindolylmaleimide or 10 μM LY
Experimental: FIG. 2: Inhibition of PI3K blocks translocation of cSrc from the perinuclear region of mouse embryo fibroblast in response to PMA treatment. SYF and p85−/− null cells were transiently transfected with cSrc and labeled for avian cSrc using EC10, an avian-specific monoclonal antibody (1:500). EC10 was visualized with anti-mouse Atexa Fluor 488 (false colored red for consistency). Cells treated with 100 nM PMA (panel b) induced translocation of cSrc to the cell periphery as indicated by the arrows. However, cells treated with 100 nM PMA in conjunction with 6 μM bisindolylmaleimide (panel c) or 10 μM LY (panel d) blocked the translocation of cSrc as indicated by the arrows. […] (n=nucleus) Bars represent 20 μM.
as §1, with “hours. Thirty-six hours after transfection, cells were serum starved for 12 hours, treated, and subsequently fixed and permeablized as previously described (Qian, Y. et. al., 1998).” for “hours.”

cSrc [3] = assay: Immunofluorescence: myrPKCα-induced cSrc activation in SYF/cSrc cells; assay type: cell-based, mouse; settings: 20 μM LY294002
[4] = SYF/cSrc cells co-expressing GFP-AFAP-110 and myrPKCα

Compound | serum-induced Ptdlns-3,4,5-P3 production (PI3K; 10% serum) | PMA-induced cSrc activation (phospho-Src-family Tyr416) [1] | PMA-induced colocalization of AFAP-110 with cSrc [1] | PMA-induced associated morphological changes ([1]; SYF cells, pretreatment 6 μM bisindolylmaleimide or 10 μM LY294002) | PMA-induced translocation of cSrc from the perinuclear region to the cell periphery (cSrc [2]) | myrPKCα-induced cSrc activation (cSrc [3]; [4]) | myrPKCα-induced changes in stress filament integrity (cSrc [3]; [4]) | effect on localization in the absence of myrPKCα (cSrc [3]; SYF/cSrc cells expressing GFP-AFAP-110 without myrPKCα) | PMA-induced Ptdlns-3,4,5-P3 production (PI3K; 100 nM PMA with 6 μM bisindolylmaleimide [I], 50 nM wortmannin, LY294002 or 5 μM PP1)
O=c1cc(N2CCOCC2)oc2c(-c3ccccc3)cccc12 [LY294002] | able to block | blocked | blocked | blocked | blocked | blocked | blocked | little effect | –
COC[C@H]1OC(=O)c2coc3c2[C@@]1(C)C1=C(C3=O)[C@@H]2CCC(=O)[C@@]2(C)C[C@H]1OC(C)=O [Wortmannin, wortmannin] | – | blocked | blocked | – | – | – | – | – | blocked
